# Assay results reported in the supplement of paper PMC6411743.
# Sequences of proteins named here, by UniProt entry; tags and fusion partners are left off. A change or cut given only in a name is not applied to a line headed by its entry.
# UniProt P61960, whole entry: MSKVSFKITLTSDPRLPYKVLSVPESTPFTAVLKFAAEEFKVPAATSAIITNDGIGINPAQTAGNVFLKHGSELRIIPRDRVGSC
# UniProt P56377: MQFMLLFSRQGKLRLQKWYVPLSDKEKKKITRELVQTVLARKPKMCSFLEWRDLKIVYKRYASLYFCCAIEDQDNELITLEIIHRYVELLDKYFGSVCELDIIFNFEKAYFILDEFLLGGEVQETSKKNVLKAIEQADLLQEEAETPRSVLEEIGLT
# UniProt P78371: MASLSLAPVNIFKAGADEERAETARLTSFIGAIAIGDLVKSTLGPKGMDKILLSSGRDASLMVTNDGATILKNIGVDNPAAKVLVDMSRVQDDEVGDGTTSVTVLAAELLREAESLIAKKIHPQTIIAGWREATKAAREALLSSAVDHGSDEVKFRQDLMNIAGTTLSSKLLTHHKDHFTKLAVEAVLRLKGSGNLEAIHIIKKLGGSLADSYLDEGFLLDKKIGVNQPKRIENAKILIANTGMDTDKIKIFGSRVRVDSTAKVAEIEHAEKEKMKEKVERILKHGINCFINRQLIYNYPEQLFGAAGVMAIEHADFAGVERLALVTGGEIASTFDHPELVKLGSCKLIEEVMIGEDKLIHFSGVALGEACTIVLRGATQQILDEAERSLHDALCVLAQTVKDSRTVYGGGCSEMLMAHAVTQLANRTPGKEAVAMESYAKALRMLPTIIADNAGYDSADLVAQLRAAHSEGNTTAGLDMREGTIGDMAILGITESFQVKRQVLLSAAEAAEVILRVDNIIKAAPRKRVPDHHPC
# UniProt P53985: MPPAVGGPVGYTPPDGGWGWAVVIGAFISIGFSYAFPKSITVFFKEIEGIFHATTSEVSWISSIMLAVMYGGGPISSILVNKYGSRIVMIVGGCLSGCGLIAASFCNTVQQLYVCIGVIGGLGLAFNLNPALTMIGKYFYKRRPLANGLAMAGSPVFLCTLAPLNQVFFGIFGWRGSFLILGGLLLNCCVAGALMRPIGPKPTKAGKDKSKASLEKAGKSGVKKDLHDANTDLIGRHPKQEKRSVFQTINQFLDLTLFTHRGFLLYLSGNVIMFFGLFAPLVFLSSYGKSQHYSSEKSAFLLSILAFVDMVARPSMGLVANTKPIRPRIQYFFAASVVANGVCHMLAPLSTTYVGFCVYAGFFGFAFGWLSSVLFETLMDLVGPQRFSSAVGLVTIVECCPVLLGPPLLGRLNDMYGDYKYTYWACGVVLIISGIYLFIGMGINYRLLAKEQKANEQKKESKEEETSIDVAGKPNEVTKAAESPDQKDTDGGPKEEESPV
# UniProt P62140, whole entry: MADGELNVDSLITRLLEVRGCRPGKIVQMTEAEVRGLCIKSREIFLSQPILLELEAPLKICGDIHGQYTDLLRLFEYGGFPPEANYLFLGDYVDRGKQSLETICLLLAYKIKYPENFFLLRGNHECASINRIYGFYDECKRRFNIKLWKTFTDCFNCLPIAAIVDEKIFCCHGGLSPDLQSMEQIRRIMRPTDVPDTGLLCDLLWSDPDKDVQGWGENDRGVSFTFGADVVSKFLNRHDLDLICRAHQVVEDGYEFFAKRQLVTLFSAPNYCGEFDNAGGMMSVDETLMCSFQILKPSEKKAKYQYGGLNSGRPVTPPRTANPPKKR
# UniProt P63010: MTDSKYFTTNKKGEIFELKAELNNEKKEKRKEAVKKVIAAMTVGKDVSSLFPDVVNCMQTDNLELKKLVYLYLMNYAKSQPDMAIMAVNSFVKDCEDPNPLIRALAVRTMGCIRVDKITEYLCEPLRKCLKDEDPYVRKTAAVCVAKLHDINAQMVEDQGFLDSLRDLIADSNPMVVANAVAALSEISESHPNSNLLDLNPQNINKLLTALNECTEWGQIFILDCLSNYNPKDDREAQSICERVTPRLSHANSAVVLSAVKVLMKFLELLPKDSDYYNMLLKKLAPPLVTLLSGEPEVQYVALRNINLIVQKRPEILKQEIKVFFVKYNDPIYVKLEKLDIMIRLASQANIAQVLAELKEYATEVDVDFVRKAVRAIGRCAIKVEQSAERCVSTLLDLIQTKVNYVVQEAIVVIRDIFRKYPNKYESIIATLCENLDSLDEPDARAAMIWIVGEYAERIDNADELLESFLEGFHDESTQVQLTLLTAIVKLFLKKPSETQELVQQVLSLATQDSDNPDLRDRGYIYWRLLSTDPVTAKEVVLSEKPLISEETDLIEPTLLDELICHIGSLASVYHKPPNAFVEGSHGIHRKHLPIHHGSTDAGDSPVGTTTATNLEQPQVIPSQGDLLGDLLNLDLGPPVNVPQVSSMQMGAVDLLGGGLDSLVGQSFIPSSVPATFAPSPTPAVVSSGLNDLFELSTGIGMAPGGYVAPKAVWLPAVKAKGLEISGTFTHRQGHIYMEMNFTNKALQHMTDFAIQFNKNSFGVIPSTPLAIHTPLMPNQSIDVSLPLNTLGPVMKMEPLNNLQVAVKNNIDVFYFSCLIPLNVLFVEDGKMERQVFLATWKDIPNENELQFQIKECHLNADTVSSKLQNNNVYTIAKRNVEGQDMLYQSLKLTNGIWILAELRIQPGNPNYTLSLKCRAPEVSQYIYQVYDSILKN
# UniProt P54619: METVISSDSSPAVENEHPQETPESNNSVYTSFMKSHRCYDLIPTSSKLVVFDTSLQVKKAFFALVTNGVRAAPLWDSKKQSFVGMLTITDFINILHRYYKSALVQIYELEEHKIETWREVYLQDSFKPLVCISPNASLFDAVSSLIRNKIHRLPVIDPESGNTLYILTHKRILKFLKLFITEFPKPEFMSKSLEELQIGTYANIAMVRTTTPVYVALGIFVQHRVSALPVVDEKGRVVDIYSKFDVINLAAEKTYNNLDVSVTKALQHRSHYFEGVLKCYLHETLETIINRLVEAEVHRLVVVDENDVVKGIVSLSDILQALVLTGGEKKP
# UniProt P53677: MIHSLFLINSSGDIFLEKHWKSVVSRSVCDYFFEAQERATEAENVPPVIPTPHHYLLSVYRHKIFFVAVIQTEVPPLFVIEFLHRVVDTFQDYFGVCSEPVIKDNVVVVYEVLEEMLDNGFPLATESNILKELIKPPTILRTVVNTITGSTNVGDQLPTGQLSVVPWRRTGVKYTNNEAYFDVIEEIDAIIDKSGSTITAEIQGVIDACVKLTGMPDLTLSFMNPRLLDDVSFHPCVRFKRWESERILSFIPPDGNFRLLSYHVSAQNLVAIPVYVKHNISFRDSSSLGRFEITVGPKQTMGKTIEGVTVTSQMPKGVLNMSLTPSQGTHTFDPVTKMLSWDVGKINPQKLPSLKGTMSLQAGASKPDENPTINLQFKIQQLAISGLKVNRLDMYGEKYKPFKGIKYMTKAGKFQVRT
# UniProt P83369: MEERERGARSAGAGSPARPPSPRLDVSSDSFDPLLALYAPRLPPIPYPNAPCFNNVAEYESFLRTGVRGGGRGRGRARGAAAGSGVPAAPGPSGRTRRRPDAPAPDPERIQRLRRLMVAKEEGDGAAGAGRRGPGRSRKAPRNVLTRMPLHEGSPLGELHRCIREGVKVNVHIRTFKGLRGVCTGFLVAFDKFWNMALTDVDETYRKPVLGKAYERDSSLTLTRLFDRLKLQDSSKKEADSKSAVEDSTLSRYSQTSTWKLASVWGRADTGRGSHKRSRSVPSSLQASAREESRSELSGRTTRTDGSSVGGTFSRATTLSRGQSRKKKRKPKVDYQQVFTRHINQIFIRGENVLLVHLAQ
# UniProt P61204: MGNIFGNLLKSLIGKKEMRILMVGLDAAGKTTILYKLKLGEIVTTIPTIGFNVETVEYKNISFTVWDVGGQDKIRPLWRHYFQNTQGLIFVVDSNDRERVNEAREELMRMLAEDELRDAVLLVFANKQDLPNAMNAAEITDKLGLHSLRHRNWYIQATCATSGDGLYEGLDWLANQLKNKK
# UniProt Q00653: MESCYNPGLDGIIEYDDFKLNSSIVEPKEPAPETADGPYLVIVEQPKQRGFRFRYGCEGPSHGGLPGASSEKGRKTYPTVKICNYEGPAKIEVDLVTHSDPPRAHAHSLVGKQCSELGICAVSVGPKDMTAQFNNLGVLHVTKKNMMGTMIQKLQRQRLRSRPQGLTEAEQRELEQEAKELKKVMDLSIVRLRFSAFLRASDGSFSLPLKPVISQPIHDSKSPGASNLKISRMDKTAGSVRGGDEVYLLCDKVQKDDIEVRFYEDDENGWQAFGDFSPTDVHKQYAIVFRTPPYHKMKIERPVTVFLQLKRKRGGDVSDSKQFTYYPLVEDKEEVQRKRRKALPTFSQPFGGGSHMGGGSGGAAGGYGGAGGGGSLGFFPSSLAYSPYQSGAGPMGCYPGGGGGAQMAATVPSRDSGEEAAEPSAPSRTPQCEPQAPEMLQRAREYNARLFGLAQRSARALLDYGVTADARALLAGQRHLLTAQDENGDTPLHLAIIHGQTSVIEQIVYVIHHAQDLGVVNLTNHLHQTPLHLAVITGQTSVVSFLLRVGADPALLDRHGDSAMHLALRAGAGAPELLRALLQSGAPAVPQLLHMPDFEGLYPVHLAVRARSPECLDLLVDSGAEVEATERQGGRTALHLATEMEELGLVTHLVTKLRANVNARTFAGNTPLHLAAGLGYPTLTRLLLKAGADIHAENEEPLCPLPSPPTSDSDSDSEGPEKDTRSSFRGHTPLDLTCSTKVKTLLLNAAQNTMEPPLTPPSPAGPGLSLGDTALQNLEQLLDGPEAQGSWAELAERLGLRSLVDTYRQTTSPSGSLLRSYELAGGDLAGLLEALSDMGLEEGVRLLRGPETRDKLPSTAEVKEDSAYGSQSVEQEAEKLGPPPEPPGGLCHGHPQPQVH
# UniProt P63218: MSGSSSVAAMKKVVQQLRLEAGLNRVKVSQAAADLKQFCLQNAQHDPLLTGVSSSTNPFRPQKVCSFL
# UniProt P53805: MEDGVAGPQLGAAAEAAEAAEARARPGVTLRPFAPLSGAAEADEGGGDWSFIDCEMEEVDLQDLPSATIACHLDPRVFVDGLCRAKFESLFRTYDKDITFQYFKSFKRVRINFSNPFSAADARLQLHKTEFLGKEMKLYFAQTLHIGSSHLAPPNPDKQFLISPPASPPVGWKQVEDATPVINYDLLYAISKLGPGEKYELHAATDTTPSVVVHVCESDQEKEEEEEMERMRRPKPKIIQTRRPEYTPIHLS
# UniProt P54886: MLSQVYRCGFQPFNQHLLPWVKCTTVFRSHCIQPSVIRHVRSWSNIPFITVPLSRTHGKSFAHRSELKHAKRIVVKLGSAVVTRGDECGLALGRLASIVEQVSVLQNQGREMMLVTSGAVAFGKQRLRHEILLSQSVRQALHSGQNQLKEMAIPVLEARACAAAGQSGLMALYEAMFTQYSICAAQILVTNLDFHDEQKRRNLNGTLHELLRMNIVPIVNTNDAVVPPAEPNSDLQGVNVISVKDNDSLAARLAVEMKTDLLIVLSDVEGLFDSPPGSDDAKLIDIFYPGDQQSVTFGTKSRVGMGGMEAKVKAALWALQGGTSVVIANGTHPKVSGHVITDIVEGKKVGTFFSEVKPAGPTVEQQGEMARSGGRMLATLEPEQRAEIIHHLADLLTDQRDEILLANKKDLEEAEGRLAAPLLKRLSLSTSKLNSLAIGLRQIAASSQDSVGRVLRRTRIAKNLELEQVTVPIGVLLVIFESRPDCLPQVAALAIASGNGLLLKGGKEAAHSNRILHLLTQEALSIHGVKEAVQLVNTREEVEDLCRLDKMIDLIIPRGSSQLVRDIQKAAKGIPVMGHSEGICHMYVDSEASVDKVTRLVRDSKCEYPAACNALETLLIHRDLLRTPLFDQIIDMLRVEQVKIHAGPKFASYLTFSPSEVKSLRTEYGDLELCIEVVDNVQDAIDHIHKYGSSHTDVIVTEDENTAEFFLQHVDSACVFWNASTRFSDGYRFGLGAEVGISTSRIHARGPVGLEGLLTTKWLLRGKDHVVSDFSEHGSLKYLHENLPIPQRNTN
# UniProt P62877, whole entry, looked up: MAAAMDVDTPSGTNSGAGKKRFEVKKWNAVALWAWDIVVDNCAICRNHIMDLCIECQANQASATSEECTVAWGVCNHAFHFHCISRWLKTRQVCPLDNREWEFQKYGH
# UniProt P67936, whole entry: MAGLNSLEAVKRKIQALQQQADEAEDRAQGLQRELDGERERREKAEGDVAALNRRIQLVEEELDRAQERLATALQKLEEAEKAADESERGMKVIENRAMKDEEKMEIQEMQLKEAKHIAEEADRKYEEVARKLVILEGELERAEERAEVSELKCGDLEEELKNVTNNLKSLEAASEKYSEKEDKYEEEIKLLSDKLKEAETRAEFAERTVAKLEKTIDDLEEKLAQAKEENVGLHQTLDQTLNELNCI
# UniProt Q00534, whole entry: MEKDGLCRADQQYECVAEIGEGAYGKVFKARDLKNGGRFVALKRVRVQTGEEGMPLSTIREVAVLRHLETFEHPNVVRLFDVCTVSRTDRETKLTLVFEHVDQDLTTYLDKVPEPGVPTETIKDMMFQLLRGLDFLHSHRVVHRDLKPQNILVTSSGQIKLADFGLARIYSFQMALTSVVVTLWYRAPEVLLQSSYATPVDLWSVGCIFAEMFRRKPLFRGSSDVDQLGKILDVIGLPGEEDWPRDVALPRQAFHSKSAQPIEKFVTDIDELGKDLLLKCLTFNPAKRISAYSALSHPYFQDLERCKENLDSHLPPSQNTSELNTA
# ± gives the standard deviation of the averaged measurements. The entries are a selection whose mix differs from that of the whole data set. Most entries show no effect beyond the scatter of the controls.
# Compound: Nc1ncnc2c1ncn2[C@@H]1O[C@H](COP(=O)(O)OP(=O)(O)OP(=O)(O)O)[C@@H](O)[C@H]1O [adenosine triphosphate]
# Test: NP40-soluble protein abundance relative to vehicle (solubility fold change) (ratio); higher = more soluble protein in presence of ATP
# Method in brief: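 In three independent experiments, Jurkat crude lysate made by Dounce homogenisation was treated for 10 min at room temperature and then 3 min at 37 °C with eight concentrations ranging from 0.1 to 10 mM. It was then solubilised with 0.8% NP40 plus benzonase for 60 min at 4 °C and ultracentrifuged. The supernatant was TMT-labelled for LC-MS/MS, and each value is the fold change against the detergent-processed vehicle for the same replicate, using vsn-normalised intensities.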
target,measurement,setting,value
UniProt P61960,NP40-soluble protein abundance,concentration: 0.1mM,0.967 ± 0.097
same,NP40-soluble protein abundance,concentration: 0.5mM,0.943 ± 0.16
UniProt P55327-2|P55327-4,NP40-soluble protein abundance,concentration: 0.1mM,0.84 ± 0.23
same,NP40-soluble protein abundance,concentration: 0.5mM,0.806 ± 0.28
P68032 and related entries (UniProt P68133+P68032),NP40-soluble protein abundance,concentration: 0.1mM,1.14 ± 0.062
same,NP40-soluble protein abundance,concentration: 0.5mM,1.13 ± 0.05
UniProt P78527,NP40-soluble protein abundance,concentration: 0.1mM,1.09 ± 0.068
same,NP40-soluble protein abundance,concentration: 0.5mM,1.17 ± 0.038
UniProt P54920 and related entries,NP40-soluble protein abundance,concentration: 0.1mM,0.946 ± 0.077
same,NP40-soluble protein abundance,concentration: 0.5mM,0.913 ± 0.075
ELL (UniProt P55199),NP40-soluble protein abundance,concentration: 0.1mM,1 ± 0.021
same,NP40-soluble protein abundance,concentration: 0.5mM,1.02 ± 0.042
UniProt P61221,NP40-soluble protein abundance,concentration: 0.1mM,1.03 ± 0.071
same,NP40-soluble protein abundance,concentration: 0.5mM,1.03 ± 0.063
UniProt P60520,NP40-soluble protein abundance,concentration: 0.1mM,0.974 ± 0.12
same,NP40-soluble protein abundance,concentration: 0.5mM,0.989 ± 0.14
AP1S2 (UniProt P56377),NP40-soluble protein abundance,concentration: 0.1mM,1.01 ± 0.018
same,NP40-soluble protein abundance,concentration: 0.5mM,1.02 ± 0.063
CCT2 (UniProt P78371),NP40-soluble protein abundance,concentration: 0.1mM,1 ± 0.034
same,NP40-soluble protein abundance,concentration: 0.5mM,1 ± 0.052
UniProt P78310 and related entries,NP40-soluble protein abundance,concentration: 0.1mM,0.949 ± 0.083
same,NP40-soluble protein abundance,concentration: 0.5mM,0.913 ± 0.039
SLC16A1 (UniProt P53985),NP40-soluble protein abundance,concentration: 0.1mM,1 ± 0.041
same,NP40-soluble protein abundance,concentration: 0.5mM,1.06 ± 0.093
UniProt P62312,NP40-soluble protein abundance,concentration: 0.1mM,0.934 ± 0.059
same,NP40-soluble protein abundance,concentration: 0.5mM,0.936 ± 0.088
UniProt P62140,NP40-soluble protein abundance,concentration: 0.1mM,1.02 ± 0.03
same,NP40-soluble protein abundance,concentration: 0.5mM,1.03 ± 0.047
UniProt P68371,NP40-soluble protein abundance,concentration: 0.1mM,0.977 ± 0.075
same,NP40-soluble protein abundance,concentration: 0.5mM,1.06 ± 0.13
UniProt P63010 and related entries,NP40-soluble protein abundance,concentration: 0.1mM,0.986 ± 0.057
same,NP40-soluble protein abundance,concentration: 0.5mM,1.09 ± 0.028
UniProt P54619 and related entries,NP40-soluble protein abundance,concentration: 0.1mM,1.01 ± 0.081
same,NP40-soluble protein abundance,concentration: 0.5mM,1.03 ± 0.033
MRPS35 (UniProt P82673),NP40-soluble protein abundance,concentration: 0.1mM,0.949 ± 0.1
same,NP40-soluble protein abundance,concentration: 0.5mM,0.968 ± 0.08
UniProt P62277,NP40-soluble protein abundance,concentration: 0.1mM,0.902 ± 0.14
same,NP40-soluble protein abundance,concentration: 0.5mM,0.83 ± 0.13
UniProt P62495,NP40-soluble protein abundance,concentration: 0.1mM,1.04 ± 0.092
same,NP40-soluble protein abundance,concentration: 0.5mM,1.06 ± 0.071
UniProt P84103 and related entries,NP40-soluble protein abundance,concentration: 0.1mM,1.07 ± 0.014
same,NP40-soluble protein abundance,concentration: 0.5mM,1.239 ± 0.0066
METAP1 (UniProt P53582),NP40-soluble protein abundance,concentration: 0.1mM,1.08 ± 0.063
same,NP40-soluble protein abundance,concentration: 0.5mM,1.15 ± 0.11
NCS1 (UniProt P62166),NP40-soluble protein abundance,concentration: 0.1mM,1.08 ± 0.039
same,NP40-soluble protein abundance,concentration: 0.5mM,0.994 ± 0.0034
UniProt P56159 and related entries,NP40-soluble protein abundance,concentration: 0.1mM,0.912 ± 0.089
same,NP40-soluble protein abundance,concentration: 0.5mM,0.936 ± 0.071
UniProt P78563 and related entries,NP40-soluble protein abundance,concentration: 0.1mM,1.07 ± 0.085
same,NP40-soluble protein abundance,concentration: 0.5mM,1.08 ± 0.052
SUB1 (UniProt P53999),NP40-soluble protein abundance,concentration: 0.1mM,0.892 ± 0.067
same,NP40-soluble protein abundance,concentration: 0.5mM,0.87 ± 0.15
RPL7A (UniProt P62424),NP40-soluble protein abundance,concentration: 0.1mM,0.985 ± 0.062
same,NP40-soluble protein abundance,concentration: 0.5mM,0.945 ± 0.054
AP3M2 (UniProt P53677),NP40-soluble protein abundance,concentration: 0.1mM,1.08 ± 0.096
same,NP40-soluble protein abundance,concentration: 0.5mM,1.03 ± 0.083
same,NP40-soluble protein abundance,concentration: 1mM,1.09 ± 0.019
same,NP40-soluble protein abundance,concentration: 2mM,1.08 ± 0.016
same,NP40-soluble protein abundance,concentration: 4mM,1.13 ± 0.043
same,NP40-soluble protein abundance,concentration: 6mM,1.02 ± 0.047
same,NP40-soluble protein abundance,concentration: 8mM,1.06 ± 0.051
same,NP40-soluble protein abundance,concentration: 10mM,1.08 ± 0.069
LSM11 (UniProt P83369),NP40-soluble protein abundance,concentration: 0.1mM,1.01 ± 0.15
same,NP40-soluble protein abundance,concentration: 0.5mM,1.08 ± 0.1
same,NP40-soluble protein abundance,concentration: 1mM,1.32 ± 0.26
same,NP40-soluble protein abundance,concentration: 2mM,1.26 ± 0.15
same,NP40-soluble protein abundance,concentration: 4mM,1.4 ± 0.17
same,NP40-soluble protein abundance,concentration: 6mM,1.62 ± 0.32
same,NP40-soluble protein abundance,concentration: 8mM,1.46 ± 0.2
same,NP40-soluble protein abundance,concentration: 10mM,1.69 ± 0.4
UniProt P54274 and related entries,NP40-soluble protein abundance,concentration: 0.1mM,0.955 ± 0.17
same,NP40-soluble protein abundance,concentration: 0.5mM,1.02 ± 0.18
same,NP40-soluble protein abundance,concentration: 1mM,1.14 ± 0.12
same,NP40-soluble protein abundance,concentration: 2mM,1.27 ± 0.17
same,NP40-soluble protein abundance,concentration: 4mM,1.43 ± 0.17
same,NP40-soluble protein abundance,concentration: 6mM,1.69 ± 0.26
same,NP40-soluble protein abundance,concentration: 8mM,1.58 ± 0.25
same,NP40-soluble protein abundance,concentration: 10mM,1.88 ± 0.35
PPP2CA (UniProt P67775),NP40-soluble protein abundance,concentration: 0.1mM,0.989 ± 0.029
same,NP40-soluble protein abundance,concentration: 0.5mM,1.01 ± 0.07
same,NP40-soluble protein abundance,concentration: 1mM,0.959 ± 0.061
same,NP40-soluble protein abundance,concentration: 2mM,0.925 ± 0.0053
same,NP40-soluble protein abundance,concentration: 4mM,0.908 ± 0.021
same,NP40-soluble protein abundance,concentration: 6mM,0.962 ± 0.033
same,NP40-soluble protein abundance,concentration: 8mM,0.9033 ± 0.007
same,NP40-soluble protein abundance,concentration: 10mM,0.9 ± 0.085
ARF3 (UniProt P61204),NP40-soluble protein abundance,concentration: 0.1mM,1.08 ± 0.088
same,NP40-soluble protein abundance,concentration: 0.5mM,1.07 ± 0.042
same,NP40-soluble protein abundance,concentration: 1mM,1.05 ± 0.21
same,NP40-soluble protein abundance,concentration: 2mM,1.01 ± 0.17
same,NP40-soluble protein abundance,concentration: 4mM,1.04 ± 0.13
same,NP40-soluble protein abundance,concentration: 6mM,0.961 ± 0.23
same,NP40-soluble protein abundance,concentration: 8mM,1.05 ± 0.073
same,NP40-soluble protein abundance,concentration: 10mM,0.996 ± 0.08
UniProt Q00653 and related entries,NP40-soluble protein abundance,concentration: 0.1mM,1.01 ± 0.025
same,NP40-soluble protein abundance,concentration: 0.5mM,1.03 ± 0.041
same,NP40-soluble protein abundance,concentration: 1mM,1.006 ± 0.0072
same,NP40-soluble protein abundance,concentration: 2mM,0.99 ± 0.026
same,NP40-soluble protein abundance,concentration: 4mM,0.971 ± 0.025
same,NP40-soluble protein abundance,concentration: 6mM,0.995 ± 0.022
same,NP40-soluble protein abundance,concentration: 8mM,0.965 ± 0.021
same,NP40-soluble protein abundance,concentration: 10mM,0.973 ± 0.012
UniProt P63218,NP40-soluble protein abundance,concentration: 0.1mM,0.88 ± 0.2
same,NP40-soluble protein abundance,concentration: 0.5mM,0.802 ± 0.21
same,NP40-soluble protein abundance,concentration: 1mM,0.812 ± 0.15
same,NP40-soluble protein abundance,concentration: 2mM,0.735 ± 0.17
same,NP40-soluble protein abundance,concentration: 4mM,0.799 ± 0.22
same,NP40-soluble protein abundance,concentration: 6mM,0.72 ± 0.12
same,NP40-soluble protein abundance,concentration: 8mM,0.77 ± 0.16
same,NP40-soluble protein abundance,concentration: 10mM,0.678 ± 0.18
UniProt P78347 and related entries,NP40-soluble protein abundance,concentration: 0.1mM,0.9779 ± 0.0067
same,NP40-soluble protein abundance,concentration: 0.5mM,0.994 ± 0.024
UniProt P53805 and related entries,NP40-soluble protein abundance,concentration: 0.1mM,0.898 ± 0.03
same,NP40-soluble protein abundance,concentration: 0.5mM,0.923 ± 0.023
UniProt P54886 and related entries,NP40-soluble protein abundance,concentration: 0.1mM,1.04 ± 0.068
same,NP40-soluble protein abundance,concentration: 0.5mM,1.03 ± 0.03
UniProt P61970,NP40-soluble protein abundance,concentration: 0.1mM,0.995 ± 0.03
same,NP40-soluble protein abundance,concentration: 0.5mM,0.988 ± 0.057
UniProt P62877,NP40-soluble protein abundance,concentration: 0.1mM,0.962 ± 0.068
same,NP40-soluble protein abundance,concentration: 0.5mM,0.98 ± 0.023
MRPS25 (UniProt P82663),NP40-soluble protein abundance,concentration: 0.1mM,0.966 ± 0.036
same,NP40-soluble protein abundance,concentration: 0.5mM,1.06 ± 0.041
same,NP40-soluble protein abundance,concentration: 1mM,0.942 ± 0.092
same,NP40-soluble protein abundance,concentration: 2mM,0.951 ± 0.066
same,NP40-soluble protein abundance,concentration: 4mM,0.96 ± 0.043
same,NP40-soluble protein abundance,concentration: 6mM,0.881 ± 0.09
same,NP40-soluble protein abundance,concentration: 8mM,0.915 ± 0.081
same,NP40-soluble protein abundance,concentration: 10mM,0.928 ± 0.078
UniProt P67936 and related entries,NP40-soluble protein abundance,concentration: 0.1mM,0.889 ± 0.11
same,NP40-soluble protein abundance,concentration: 0.5mM,0.77 ± 0.28
UniProt P62253,NP40-soluble protein abundance,concentration: 0.1mM,1.09 ± 0.084
same,NP40-soluble protein abundance,concentration: 0.5mM,1.07 ± 0.15
same,NP40-soluble protein abundance,concentration: 1mM,1.06 ± 0.053
same,NP40-soluble protein abundance,concentration: 2mM,1.05 ± 0.071
same,NP40-soluble protein abundance,concentration: 4mM,1 ± 0.07
same,NP40-soluble protein abundance,concentration: 6mM,1.01 ± 0.11
same,NP40-soluble protein abundance,concentration: 8mM,1.03 ± 0.097
same,NP40-soluble protein abundance,concentration: 10mM,0.947 ± 0.049
UniProt P59190,NP40-soluble protein abundance,concentration: 0.1mM,1.35 ± 0.11
same,NP40-soluble protein abundance,concentration: 0.5mM,1.1 ± 0.11
same,NP40-soluble protein abundance,concentration: 1mM,1.18 ± 0.054
same,NP40-soluble protein abundance,concentration: 2mM,2.37 ± 1.5
same,NP40-soluble protein abundance,concentration: 4mM,1.25 ± 0.21
same,NP40-soluble protein abundance,concentration: 6mM,1.16 ± 0.23
same,NP40-soluble protein abundance,concentration: 8mM,1.22 ± 0.2
same,NP40-soluble protein abundance,concentration: 10mM,1.18 ± 0.15
CDK6 (UniProt Q00534),NP40-soluble protein abundance,concentration: 0.1mM,1.04 ± 0.064
same,NP40-soluble protein abundance,concentration: 0.5mM,1.02 ± 0.048
same,NP40-soluble protein abundance,concentration: 1mM,0.984 ± 0.047
same,NP40-soluble protein abundance,concentration: 2mM,0.999 ± 0.051
same,NP40-soluble protein abundance,concentration: 4mM,0.988 ± 0.05
same,NP40-soluble protein abundance,concentration: 6mM,0.955 ± 0.058
same,NP40-soluble protein abundance,concentration: 8mM,0.966 ± 0.041
same,NP40-soluble protein abundance,concentration: 10mM,0.974 ± 0.064

# Reprinted at random: 2 entries already listed
target,measurement,setting,value
CDK6 (UniProt Q00534),NP40-soluble protein abundance,concentration: 0.1mM,1.04 ± 0.064
UniProt P54274 and related entries,NP40-soluble protein abundance,concentration: 1mM,1.14 ± 0.12

# An excerpt of these results, with tabs:
target	measurement	setting	value
UniProt P55327-2|P55327-4	NP40-soluble protein abundance	concentration: 0.5mM	0.806 ± 0.28
UniProt P62253	NP40-soluble protein abundance	concentration: 0.5mM	1.07 ± 0.15
CDK6 (UniProt Q00534)	NP40-soluble protein abundance	concentration: 2mM	0.999 ± 0.051

# Nothing new here: an excerpt of the list.
target,measurement,setting,value
UniProt P78527,NP40-soluble protein abundance,concentration: 0.1mM,1.09 ± 0.068
same,NP40-soluble protein abundance,concentration: 0.5mM,1.17 ± 0.038
UniProt P54920 and related entries,NP40-soluble protein abundance,concentration: 0.1mM,0.946 ± 0.077
same,NP40-soluble protein abundance,concentration: 0.5mM,0.913 ± 0.075
